In PubChem BioAssay AID624297 (National Center for Advancing Translational Sciences (NCATS), 2012):
Hit rate of the full screen: of about 340,000 compounds, about 6,200 (1.8%) were called active. Inconclusive means that the source gave no clear call. Such entries were picked first, then a sample of the others. The call rests on the fitted dose curve; in most records, active means well fitted activation curve with a large enough effect; inconclusive means small, poorly fitted or top-dose-only effect; inactive means no such curve, though single readings can be large or run the other way. Potencies beside an inconclusive call are fits to weak or partial responses and may not hold up.

Assay: A quantitative high throughput screen for small molecules that induce DNA re-replication in SW480 colon adenocarcinoma cells. Further: nearly all actives have a fitted effect of over 55% in size.
Conditions: Hoechst DNA content imaging, 48 h; series mostly up to 46.1 µM
Summary of the method: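 250 cells/well; 23 nL cpd via pin tool; 48 hr, 37 C, 5% CO2; Hoechst 40 min; imager read of total nuclear intensity, ex 405/em 500-530 nm.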
Potency means the concentration at half of the fitted maximal effect.

| Structure (SMILES) | Potency |
| --- | --- |
| C/C(=N\Nc1ccccc1)c1cccs1 | inactive |
| Cc1onc(-c2ccccc2)c1CNS(=O)(=O)c1ccccc1[N+](=O)[O-] | inactive |
| COC(=O)c1sc(NC(=S)NC(=O)c2ccccc2C)nc1C | inactive |
| C[C@H](CO)N1C[C@H](C)[C@@H](CN(C)Cc2ccc3c(c2)OCO3)Oc2c(NC(=O)C3CCCCC3)cccc2C1=O | inconclusive: 6.51 µM [activator, single point] |
| COc1ccc(-c2csc(C3=C(O)CN(CCCN4CCCC4=O)C3=N)n2)cc1OC | inactive |
| Cc1cc(N2CCN(C)CC2)ccc1NC(=O)c1cccc(S(=O)(=O)N2CCc3ccccc3C2)c1 | inconclusive: 20.6 µM [activator, partial curve, poor fit] |
| Cc1c(C(=O)N2CCN(c3ccccn3)CC2)cccc1[N+](=O)[O-] | inactive |
| COc1ccc(C(CCNCc2ccc(OC)c(OC)c2)c2ccc(F)cc2)cc1 (stereo unspecified) | inconclusive: 14.6 µM [activator, partial curve, poor fit] |
| Nc1nc(CN2CCN(c3ccc(F)cc3)CC2)nc(N2CCCc3ccccc32)n1 | inconclusive: 29.1 µM [activator, single point] |
| Clc1ccc2nnc(Cl)n2n1 | inactive |
| COC(=O)c1cc(=O)n(-c2c(Cl)cc(C(F)(F)F)cc2Cl)[nH]1 | inconclusive: 3.66 µM [activator, partial curve, poor fit] |
| N#C/C(=C\c1ccccc1O)C(=O)Nc1ccccn1 | inactive |
| c1ccc2c(-c3[nH]ncc3CNCCCn3ncc4ccccc43)cccc2c1 | inconclusive: 29.1 µM [activator, single point] |
| CN(C)c1ccc(N2C(=NC(=O)COc3ccccc3)SC3CS(=O)(=O)CC32)cc1 (stereo unspecified) | inactive |
| COc1ccc(C2C=C(c3ccc(C)cc3)Nc3ncnn32)cc1 (stereo unspecified) | inconclusive: 29.1 µM [activator, single point] |
| CC(C1CCN(Cc2cn(C)nc2-c2cccc(Cl)c2)CC1)N1CCOCC1 (stereo unspecified) | inconclusive: 4.61 µM [activator, partial curve, poor fit] |
| CN(c1ccccc1)S(=O)(=O)c1ccc2c(c1)OCCO2 | inconclusive: 29.1 µM [activator, single point] |
| CCOC(=O)c1c(C)nc2sc3c(=O)[nH]cnc3c2c1-c1ccc(OC)cc1 | inconclusive: 29.1 µM [activator, partial curve, poor fit] |
| O=C(Nc1cc([N+](=O)[O-])ccc1Cl)c1ccc2c(c1)OCO2 | inconclusive: 25.9 µM [activator, single point] |
| O=C(NCc1ccccc1)c1noc2c1CCCC2 | inconclusive: 29.1 µM [activator, single point] |
| O=C1/C(=C/c2ccco2)SC(=S)N1CC1CCCO1 (stereo unspecified) | inconclusive: 32.6 µM [activator, single point] |
| O=S(=O)(c1cnc[nH]1)N1CCN(C(c2ccc(F)cc2)c2ccc(F)cc2)CC1 | inconclusive: 18.4 µM [activator, single point] |
| COc1ccc2nc(NC(=O)c3sc4nc(C)cc(C)c4c3N)sc2c1 | inconclusive: 1.64 µM [activator, full curve] |

| Structure (SMILES) | Potency |
| --- | --- |
| Cc1cccc(-n2c3nc(=O)[nH]c(=O)c-3cc3cc([N+](=O)[O-])ccc32)c1 | inconclusive: 13 µM [activator, partial curve, poor fit] |
| CNC(=S)NNC(=O)CSCc1c(Cl)cccc1Cl | inconclusive: 3.66 µM [activator, partial curve, poor fit] |
| Nc1nc(Br)c2ccccc2c1-c1ccccc1 | inconclusive: 18.4 µM [activator, single point] |
| O=C(/C=C/c1ccc([N+](=O)[O-])cc1)NCc1ccccn1 | inactive |
| Cc1cc(NC(=O)C2CC(=O)N(c3ccccc3)C2)no1 (stereo unspecified) | inconclusive: 5.8 µM [activator, full curve, poor fit] |
| S=c1[nH]c2ccc(Cl)cc2[nH]1 | inactive |
| Cc1cc(C)nc(Nc2n[nH]c(COc3cccc4ccccc34)n2)n1 | inconclusive: 5.17 µM [activator, full curve, poor fit] |
| O=C(c1cc(-c2ccccc2)nc2ccccc12)N1CCCc2ccccc21 | inconclusive: 11.6 µM [activator, partial curve, poor fit] |
| COc1ccc2c(c1)/C(=C/c1cc(OC)c(OC)c(OC)c1)C(=O)N2 | active: 2.59 µM |
| OCCN1CCN(CCSc2ccccc2)CC1 | inconclusive: 0.116 µM [activator, full curve, poor fit] |
| CCc1ccc(-n2c(Cc3ccccc3)n[nH]c2=S)cc1 | inactive |
| COc1ccc(NS(=O)(=O)c2ccc(SC)cc2)cc1 | inconclusive: 29.1 µM [activator, single point] |
| S=c1[nH]nc(Nc2ccccc2Cl)s1 | inactive |
| COc1ccc(C2CC(=O)c3cnc(Nc4cc(C)cc(C)c4)nc3C2)cc1 (stereo unspecified) | inconclusive: 20.6 µM [activator, single point] |
| Cc1cc(C(=O)CS(=O)(=O)c2ccc(F)cc2)cc(C)c1O | inactive |
| COCCCNC(=O)c1cc2c(=O)n3cccc(C)c3nc2n(C(C)C)c1=N | active: 2.82 µM |
| CCN1CCN(c2ccc(S(=O)(=O)N3CCCCC3)cc2NC(=O)c2ccc(F)cc2)CC1 | inconclusive: 0.164 µM [activator, full curve, poor fit] |
| Cc1cccc(N2C(=O)CC(Sc3nc(C)cc(C)n3)C2=O)c1 (stereo unspecified) | inactive |
| COc1ccc(C(C#N)=Cc2ccc(NC(C)=O)cc2)cc1 | inconclusive: 18.4 µM [activator, single point] |
| O=C(COc1cccc2cccnc12)Nc1nccs1 | inconclusive: 32.6 µM [activator, partial curve, poor fit] |
| CCCCn1c(N)c(N(Cc2ccccc2OC)C(=O)C(C)C)c(=O)[nH]c1=O | inactive |
| O=C(CCC1CCCC1)NCCS(=O)(=O)N1CCN(c2ccccc2F)CC1 | inactive |
| Cc1ccc2c(ccc(=S)n2C)c1 | inconclusive: 9.2 µM [activator, single point] |

Pulled by compound from above, 3 records:

| Structure (SMILES) | Potency |
| --- | --- |
| O=S(=O)(c1cnc[nH]1)N1CCN(C(c2ccc(F)cc2)c2ccc(F)cc2)CC1 | inconclusive: 18.4 µM [activator, single point] |
| COc1ccc(C2CC(=O)c3cnc(Nc4cc(C)cc(C)c4)nc3C2)cc1 (stereo unspecified) | inconclusive: 20.6 µM [activator, single point] |
| Cc1cccc(-n2c3nc(=O)[nH]c(=O)c-3cc3cc([N+](=O)[O-])ccc32)c1 | inconclusive: 13 µM [activator, partial curve, poor fit] |
